Results reported in patent publication US9492447B2, “Cannabinoid receptor modulators” (Arena Pharmaceuticals, Inc., priority 2011, dated 2016).
Some of these results come from one statement about several compounds together.

The chains behind the UniProt entries cited, without tags or fusion partners.
UniProt P34972, whole entry: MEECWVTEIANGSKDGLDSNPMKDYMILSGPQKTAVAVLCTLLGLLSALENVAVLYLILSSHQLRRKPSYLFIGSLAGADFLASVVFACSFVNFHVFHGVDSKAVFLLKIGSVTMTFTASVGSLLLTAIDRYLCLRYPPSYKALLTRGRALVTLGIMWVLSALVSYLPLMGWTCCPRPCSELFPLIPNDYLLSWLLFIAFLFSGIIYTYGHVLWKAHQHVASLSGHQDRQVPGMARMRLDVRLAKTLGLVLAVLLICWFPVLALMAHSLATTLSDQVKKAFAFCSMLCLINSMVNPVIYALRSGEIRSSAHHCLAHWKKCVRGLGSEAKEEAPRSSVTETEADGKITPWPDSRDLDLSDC

The compounds below were run against T1, human CB2 receptor (Homo sapiens, UniProt P34972) (assay: PathHunter β-arrestin assay, CB2 assay). Conditions: range over compounds, limits printed with their own units.
T1 construct: CB2 was cloned into the pCMV-PK vector; 93-0164 (CHO-K1 EA-Arrestin parental cell line)
Type: cell-based

| Structure (SMILES) | hCB2 EC50 value, range |
| --- | --- |
| CNC(=O)[C@@H](NC(=O)c1nn(-c2c[n+]([O-])ccn2)c2c1C[C@H]1C[C@@H]21)c1ccccc1 [Compound 722, (1aR,5aR)-2-(4-Oxy-pyrazin-2-yl)-1a,2,5,5a-tetrahydro-1H-2,3-diaza-cyclopropa[a]pentalene-4-carboxylic Acid ((S)-Methylcarbamoyl-phenyl-methyl)-amide] | 0.72 nM to about 3 μM |
| COC(=O)[C@@H](NC(=O)c1nn(-c2c[n+]([O-])ccn2)c2c1C[C@H]1C[C@@H]21)C(C)(C)C [Compound 746, (S)-3,3-Dimethyl-2-{[(1aR,5aR)-2-(4-oxy-pyrazin-2-yl)-1a,2,5,5a-tetrahydro-1H-2,3-diaza-cyclopropa[a]pentalene-4-carbonyl]-amino}-butyric Acid Methyl Ester] | 0.72 nM to about 3 μM |
| O=C(NC1(C(F)(F)F)CCC1)c1nn(-c2c[n+]([O-])ccn2)c2c1C[C@@H]1C[C@H]21 [Compound 765, (1aS,5aS)-2-(4-Oxy-pyrazin-2-yl)-1a,2,5,5a-tetrahydro-1H-2,3-diaza-cyclopropa[a]pentalene-4-carboxylic Acid (1-Trifluoromethyl-cyclobutyl)-amide] | 0.72 nM to about 3 μM |
| CC(C)(C)[C@@H](NC(=O)c1nn(-c2c[n+]([O-])ccn2)c2c1C[C@@H]1C[C@H]21)c1ccccn1 [Compound 766, (1aS,5aS)-2-(4-Oxy-pyrazin-2-yl)-1a,2,5,5a-tetrahydro-1H-2,3-diaza-cyclopropa[a]pentalene-4-carboxylic Acid ((R)-2,2-Dimethyl-1-pyridin-2-yl-propyl)-amide] | 0.72 nM to about 3 μM |
| CC(C)(C)[C@H](NC(=O)c1nn(-c2c[n+]([O-])ccn2)c2c1C[C@@H]1C[C@H]21)c1ccccn1 [Compound 767, (1aS,5aS)-2-(4-Oxy-pyrazin-2-yl)-1a,2,5,5a-tetrahydro-1H-2,3-diaza-cyclopropa[a]pentalene-4-carboxylic Acid ((S)-2,2-Dimethyl-1-pyridin-2-yl-propyl)-amide] | 0.72 nM to about 3 μM |
| CC(CO)(CO)NC(=O)c1nn(-c2cc(C#N)ccn2)c2c1C[C@H]1C[C@@H]21 [Compound 820, (1aR,5aR)-2-(4-Cyano-pyridin-2-yl)-1a,2,5,5a-tetrahydro-1H-2,3-diaza-cyclopropa[a]pentalene-4-carboxylic Acid (2-Hydroxy-1-hydroxymethyl-1-methyl-ethyl)-amide] | 0.72 nM to about 3 μM |
| CC1(NC(=O)c2nn(-c3c[n+]([O-])ccn3)c3c2C[C@H]2C[C@@H]32)CCC1 [Compound 821, (1aR,5aR)-2-(4-Oxy-pyrazin-2-yl)-1a,2,5,5a-tetrahydro-1H-2,3-diaza-cyclopropa[a]pentalene-4-carboxylic Acid (1-Methyl-cyclobutyl)-amide] | 0.72 nM to about 3 μM |
| CC(C)[C@@H](C)NC(=O)c1nn(-c2c[n+]([O-])ccn2)c2c1C[C@H]1C[C@@H]21 [Compound 828, (1aR,5aR)-2-(4-Oxy-pyrazin-2-yl)-1a,2,5,5a-tetrahydro-1H-2,3-diaza-cyclopropa[a]pentalene-4-carboxylic Acid ((R)-1,2-Dimethyl-propyl)-amide] | 0.72 nM to about 3 μM |
| O=C(N[C@H](CO)C1CCOCC1)c1nn(-c2c[n+]([O-])ccn2)c2c1C[C@H]1C[C@@H]21 [Compound 841, (1aR,5aR)-2-(4-Oxy-pyrazin-2-yl)-1a,2,5,5a-tetrahydro-1H-2,3-diaza-cyclopropa[a]pentalene-4-carboxylic acid [(S)-2-hydroxy-1-(tetrahydro-pyran-4-yl)-ethyl]-amide] | 0.72 nM to about 3 μM |
| CC(C)[C@H](N)C(=O)OC[C@@H](NC(=O)c1nn(-c2c[n+]([O-])ccn2)c2c1C[C@@H]1C[C@H]21)C(C)(C)C [Compound 848, (1aS,5aS)-(S)-2-Amino-3-methyl-butyric Acid (S)-3,3-Dimethyl-2-{[2-(4-oxy-pyrazin-2-yl)-1a,2,5,5a-tetrahydro-1H-2,3-diaza-cyclopropa[a]pentalene-4-carbonyl]-amino}-butyl Ester] | 0.72 nM to about 3 μM |
| O=C(NC(CO)(CF)CF)c1nn(-c2cc(Cl)ccn2)c2c1C[C@@H]1C[C@H]21 [Compound 889, (1aS,5aS)-2-(4-Chloro-pyridin-2-yl)-1a,2,5,5a-tetrahydro-1H-2,3-diaza-cyclopropa[a]pentalene-4-carboxylic Acid (2-Fluoro-1-fluoromethyl-1-hydroxymethyl-ethyl)-amide] | 0.72 nM to about 3 μM |
| N#Cc1ccnc(-n2nc(C(=O)N[C@H](CO)CC(F)(F)F)c3c2[C@H]2C[C@H]2C3)c1 [Compound 891, (1aS,5aS)-2-(4-Cyano-pyridin-2-yl)-1a,2,5,5a-tetrahydro-1H-2,3-diaza-cyclopropa[a]pentalene-4-carboxylic Acid ((S)-3,3,3-Trifluoro-1-hydroxymethyl-propyl)-amide] | 0.72 nM to about 3 μM |
| CC(C)[C@@H](CO)NC(=O)c1nn(-c2c[n+]([O-])ccn2)c2c1C[C@@H]1C[C@H]21 [Compound 896, (1aS,5aS)-2-(4-Oxy-pyrazin-2-yl)-1a,2,5,5a-tetrahydro-1H-2,3-diaza-cyclopropa[a]pentalene-4-carboxylic Acid ((S)-1-Hydroxymethyl-2-methyl-propyl)-amide] | 0.72 nM to about 3 μM |
| CC(C)(CF)NC(=O)c1nn(-c2cc(Cl)ccn2)c2c1C[C@@H]1C[C@H]21 [Compound 897, (1aS,5aS)-2-(4-Chloro-pyridin-2-yl)-1a,2,5,5a-tetrahydro-1H-2,3-diaza-cyclopropa[a]pentalene-4-carboxylic Acid (2-Fluoro-1,1-dimethyl-ethyl)-amide] | 0.72 nM to about 3 μM |
| CC(C)(C)NNC(=O)c1nn(-c2c[n+]([O-])ccn2)c2c1C[C@@H]1C[C@H]21 [Compound 902, (1aS,5aS)-2-(4-Oxy-pyrazin-2-yl)-1a,2,5,5a-tetrahydro-1H-2,3-diaza-cyclopropa[a]pentalene-4-carboxylic Acid N′-tert-Butyl-hydrazide] | 0.72 nM to about 3 μM |
| CC(C)(CF)NC(=O)c1nn(-c2c[n+]([O-])ccn2)c2c1C[C@@H]1C[C@H]21 [Compound 904, (1aS,5aS)-2-(4-Oxy-pyrazin-2-yl)-1a,2,5,5a-tetrahydro-1H-2,3-diaza-cyclopropa[a]pentalene-4-carboxylic Acid (2-Fluoro-1,1-dimethyl-ethyl)-amide] | 0.72 nM to about 3 μM |
| CC(C)[C@@H](C)NC(=O)c1nn(-c2c[n+]([O-])ccn2)c2c1C[C@@H]1C[C@H]21 [Compound 912, (1aS,5aS)-2-(4-Oxy-pyrazin-2-yl)-1a,2,5,5a-tetrahydro-1H-2,3-diaza-cyclopropa[a]pentalene-4-carboxylic Acid ((R)-1,2-Dimethyl-propyl)-amide] | 0.72 nM to about 3 μM |
| O=C(N[C@H](CO)c1ccccc1)c1nn(-c2c[n+]([O-])ccn2)c2c1C[C@@H]1C[C@H]21 [Compound 913, (1aS,5aS)-2-(4-Oxy-pyrazin-2-yl)-1a,2,5,5a-tetrahydro-1H-2,3-diaza-cyclopropa[a]pentalene-4-carboxylic Acid ((S)-2-Hydroxy-1-phenyl-ethyl)-amide] | 0.72 nM to about 3 μM |
